Experimental data taken from paper PMC9598763, “WDR73 Depletion Destabilizes PIP4K2C Activity and Impairs Focal Adhesion Formation in Galloway–Mowat Syndrome” (Biology, 2022).
Results are given in words; binding and its absence hold for the method and conditions named. For part of these data: In cells and extracts the contact can be indirect. Some binding calls cover weakened binding; strength is not graded here. Where a sequence is shown, tags or fusion partners need not be part of it. One block for each molecule: values may come before it.

Sequences of proteins named here, by UniProt entry; tags and fusion partners are left off.
UniProt Q9HCE0: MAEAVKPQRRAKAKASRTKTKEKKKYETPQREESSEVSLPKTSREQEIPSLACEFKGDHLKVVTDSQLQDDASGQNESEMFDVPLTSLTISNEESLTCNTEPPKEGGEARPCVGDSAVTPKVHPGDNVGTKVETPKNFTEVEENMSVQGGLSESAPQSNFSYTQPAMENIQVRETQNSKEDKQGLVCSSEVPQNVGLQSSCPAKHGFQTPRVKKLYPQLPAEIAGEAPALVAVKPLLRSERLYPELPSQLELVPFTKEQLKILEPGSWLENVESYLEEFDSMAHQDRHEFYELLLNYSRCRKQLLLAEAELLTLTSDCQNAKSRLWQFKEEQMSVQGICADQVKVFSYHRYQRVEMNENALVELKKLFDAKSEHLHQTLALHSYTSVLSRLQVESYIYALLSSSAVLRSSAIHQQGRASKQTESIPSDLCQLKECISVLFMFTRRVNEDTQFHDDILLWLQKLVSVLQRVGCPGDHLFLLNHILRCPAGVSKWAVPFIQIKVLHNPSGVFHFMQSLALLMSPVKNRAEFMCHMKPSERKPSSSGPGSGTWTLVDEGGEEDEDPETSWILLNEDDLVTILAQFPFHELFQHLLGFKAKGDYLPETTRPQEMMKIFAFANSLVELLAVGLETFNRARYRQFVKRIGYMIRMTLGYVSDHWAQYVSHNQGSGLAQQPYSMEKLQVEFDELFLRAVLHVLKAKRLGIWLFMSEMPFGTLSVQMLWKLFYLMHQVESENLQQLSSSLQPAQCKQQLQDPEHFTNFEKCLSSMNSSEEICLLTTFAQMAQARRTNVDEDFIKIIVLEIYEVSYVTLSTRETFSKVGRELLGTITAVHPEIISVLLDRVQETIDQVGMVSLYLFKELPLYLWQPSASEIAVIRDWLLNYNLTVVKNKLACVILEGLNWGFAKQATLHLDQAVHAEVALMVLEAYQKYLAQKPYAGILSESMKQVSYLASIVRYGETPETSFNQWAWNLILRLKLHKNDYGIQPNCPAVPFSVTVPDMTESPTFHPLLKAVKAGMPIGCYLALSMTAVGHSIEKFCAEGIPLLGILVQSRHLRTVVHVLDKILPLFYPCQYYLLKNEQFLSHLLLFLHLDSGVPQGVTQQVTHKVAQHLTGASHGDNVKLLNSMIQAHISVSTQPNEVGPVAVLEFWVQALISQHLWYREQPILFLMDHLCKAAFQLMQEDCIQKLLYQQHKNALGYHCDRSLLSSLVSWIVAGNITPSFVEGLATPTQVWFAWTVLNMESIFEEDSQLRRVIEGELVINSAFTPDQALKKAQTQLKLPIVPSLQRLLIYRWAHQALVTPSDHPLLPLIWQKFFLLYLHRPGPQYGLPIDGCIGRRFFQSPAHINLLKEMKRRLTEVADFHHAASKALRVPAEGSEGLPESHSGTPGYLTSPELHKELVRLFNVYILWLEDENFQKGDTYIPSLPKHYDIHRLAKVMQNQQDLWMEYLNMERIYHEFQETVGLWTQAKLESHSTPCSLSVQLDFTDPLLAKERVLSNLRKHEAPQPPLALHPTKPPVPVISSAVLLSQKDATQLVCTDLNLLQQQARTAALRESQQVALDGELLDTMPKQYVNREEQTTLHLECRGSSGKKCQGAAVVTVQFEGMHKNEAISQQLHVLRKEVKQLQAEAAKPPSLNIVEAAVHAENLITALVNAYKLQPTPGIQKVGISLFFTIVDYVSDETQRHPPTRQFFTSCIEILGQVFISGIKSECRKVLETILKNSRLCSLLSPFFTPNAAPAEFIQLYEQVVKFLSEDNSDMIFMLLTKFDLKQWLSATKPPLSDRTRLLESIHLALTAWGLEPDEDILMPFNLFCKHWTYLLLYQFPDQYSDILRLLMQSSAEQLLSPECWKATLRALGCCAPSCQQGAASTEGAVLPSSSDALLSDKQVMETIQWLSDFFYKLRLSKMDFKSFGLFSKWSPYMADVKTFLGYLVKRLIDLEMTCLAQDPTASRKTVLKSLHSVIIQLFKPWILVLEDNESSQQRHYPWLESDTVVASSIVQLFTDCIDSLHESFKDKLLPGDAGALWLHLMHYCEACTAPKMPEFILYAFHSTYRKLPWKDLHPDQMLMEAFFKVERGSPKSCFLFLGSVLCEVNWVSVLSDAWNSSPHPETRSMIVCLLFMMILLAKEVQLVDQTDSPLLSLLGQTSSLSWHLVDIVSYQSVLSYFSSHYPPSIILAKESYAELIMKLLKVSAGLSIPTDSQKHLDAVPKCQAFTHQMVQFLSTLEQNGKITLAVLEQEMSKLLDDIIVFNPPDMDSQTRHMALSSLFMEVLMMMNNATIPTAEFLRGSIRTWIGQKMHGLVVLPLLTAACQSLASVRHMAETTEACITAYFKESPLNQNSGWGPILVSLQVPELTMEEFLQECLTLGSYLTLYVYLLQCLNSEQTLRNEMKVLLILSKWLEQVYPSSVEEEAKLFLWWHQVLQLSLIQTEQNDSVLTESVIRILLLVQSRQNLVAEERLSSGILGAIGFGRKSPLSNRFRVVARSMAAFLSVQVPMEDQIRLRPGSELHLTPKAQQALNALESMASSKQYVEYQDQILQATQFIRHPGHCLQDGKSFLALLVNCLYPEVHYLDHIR

Experiments:
[1] = target: T1, 3×HA-WDR73 (human) (UniProt Q6P4I2); experiment: co-IP; HEK293 cells transfected with 3HA-WDR73 and GFP-Epg5 (or GFP); lysis in 20 mM Tris pH 7.5, 150 mM NaCl, 1% Triton X-100; anti-HA magnetic beads, 4 °C overnight; Western blotting
T1 sequence: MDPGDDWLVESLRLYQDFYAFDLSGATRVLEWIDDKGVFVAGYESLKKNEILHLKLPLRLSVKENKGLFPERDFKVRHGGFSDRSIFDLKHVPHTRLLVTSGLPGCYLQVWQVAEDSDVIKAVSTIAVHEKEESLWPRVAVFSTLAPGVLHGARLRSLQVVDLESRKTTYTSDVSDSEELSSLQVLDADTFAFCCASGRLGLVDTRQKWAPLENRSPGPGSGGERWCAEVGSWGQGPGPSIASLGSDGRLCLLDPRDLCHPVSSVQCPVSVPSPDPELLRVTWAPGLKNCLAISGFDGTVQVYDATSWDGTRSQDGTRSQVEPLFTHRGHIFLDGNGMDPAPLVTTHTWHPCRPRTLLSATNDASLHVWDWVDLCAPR

[2] = target: ectopic P-granules autophagy protein 5 (EPG5) on the HuProt human proteome microarray (human) (UniProt Q9HCE0); experiment: peptide or protein array; Cy3-tagged His-WDR73 incubated on the HuProt v4.0 20K Human Proteome Microarray (purified human proteins as N-terminal GST fusions) overnight at 4 °C, washed, scanned; candidates by Z-score > 3; both purified
[3] = target: T2, GST-PIP4K2C fusion protein (UniProt Q8TBX8); experiment: pull-down; approximately 100 µg GST or GST-PIP4K2C immobilised on 50 µL Mag-Beads GST; approximately 100 µg His-WDR73 added, overnight at 4 °C; washed five times with PBS; Western blotting; both purified
T2 sequence: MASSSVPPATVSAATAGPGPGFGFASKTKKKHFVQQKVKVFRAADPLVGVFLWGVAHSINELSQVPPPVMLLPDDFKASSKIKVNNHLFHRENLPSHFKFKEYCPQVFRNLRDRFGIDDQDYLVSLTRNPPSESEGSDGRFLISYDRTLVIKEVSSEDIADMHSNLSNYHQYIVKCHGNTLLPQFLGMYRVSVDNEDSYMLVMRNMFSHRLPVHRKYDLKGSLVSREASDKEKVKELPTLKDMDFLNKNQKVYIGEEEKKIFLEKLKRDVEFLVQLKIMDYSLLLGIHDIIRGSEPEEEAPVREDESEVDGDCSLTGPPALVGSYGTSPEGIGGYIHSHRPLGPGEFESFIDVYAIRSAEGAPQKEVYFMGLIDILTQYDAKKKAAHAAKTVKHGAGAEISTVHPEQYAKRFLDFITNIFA

binding [1]: binds
Molecule: GFP-hEPG5 (from UniProt Q9HCE0 1-2579)

binding [2]: binds
B1: Cy3-tagged His-WDR73 (natural protein, human, UniProt Q6P4I2 1-378, looked up)
chain: T1 sequence
modifications: labeled with Cy3 (CyDye Protein Labelling CY3 MONO 5-PACK, GE)
notes: WDR73 (WD40-repeat-containing protein), human; Probe of the HuProt microarray; also called recombinant His-WDR73 fusion protein; purified human WDR73 protein; source: recombinant, purified by MerryBio Co., Ltd

binding [3]: binds
B2: His-WDR73 fusion protein (protein, UniProt Q6P4I2 1-378)
chain: T1 sequence
